Measurements from patent US20210187120A1 (WISCONSIN ALUMNI RESEARCH FOUNDATION, published 2021).
Results are given in words; binding and its absence hold for the method and conditions named. Some binding calls cover weakened binding; strength is not graded here. Each block holds one binder with its values, some of them ahead of it. No end group written: not given here.

The chains behind the UniProt entries cited, without tags or fusion partners. Where a name states a change or a piece, a line headed by the entry shows the natural chain unless it says otherwise. Residues count along the entry.
UniProt Q9NZQ7: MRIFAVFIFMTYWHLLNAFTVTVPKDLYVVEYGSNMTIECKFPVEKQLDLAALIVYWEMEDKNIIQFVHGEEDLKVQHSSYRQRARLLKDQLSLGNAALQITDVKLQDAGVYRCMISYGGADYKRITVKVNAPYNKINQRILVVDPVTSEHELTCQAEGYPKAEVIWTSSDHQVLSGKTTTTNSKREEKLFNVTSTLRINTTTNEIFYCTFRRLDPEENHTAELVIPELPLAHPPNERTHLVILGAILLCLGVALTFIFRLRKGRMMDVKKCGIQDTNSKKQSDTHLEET
PD-L1 on 786-O cells (PD-L1 overexpressing human renal cell carcinoma line) and MCF-7 cells (low PD-L1): residues 19-290 of Q9NZQ7
PD-L1 proteins (R&D systems): residues 19-239 of Q9NZQ7

Experiments:
[1] = biological target: PD-L1 proteins (R&D systems) (UniProt Q9NZQ7); assay: SPR, PD-L1 immobilized, conjugate injected at 0.1-0.8 µM
[2] = biological target: PD-L1 proteins (R&D systems) (UniProt Q9NZQ7); assay: SPR
[3] = biological target: PD-L1 on 786-O cells (PD-L1 overexpressing human renal cell carcinoma line) and MCF-7 cells (low PD-L1) (human) (UniProt Q9NZQ7); assay: fluorescence microscopy (rhodamine), cells treated for 1 h
[4] = biological target: PD-L1 on 786-O cells (PD-L1 overexpressing human renal cell carcinoma line) and MCF-7 cells (low PD-L1) (human) (UniProt Q9NZQ7); assay: fluorescence microscopy of 786-O and MCF-7 cells
[5] = biological target: PD-L1 proteins (R&D systems) (UniProt Q9NZQ7); assay: SPR, PD-L1 immobilized, peptide injected at 25-200 µM

- binding [1]: binds
- binding [2]: binds
- binding [3]: binds
- binding [4]: binds
Binder: HKVWHWESPSGQWDTWAA (conjugated to the dendrimer surface through the introduced lysine) [G7-pL1TZ (pL1TZ peptides conjugated to G7 dendrimer)]

- binding [5]: binds
- binding [2]: binds
B1: pL1TZ (Trp-Zip βH2 mutant peptide) (peptide)
peptide: HKVWHWESPSGQWDTWAA-NH2
notes: Free tryptophan-zipper peptide; also called pLiTZ
